Laboratory results: PubChem BioAssay AID1053208 (Peter MacCallum Cancer Centre, 2014)
Test: 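Genes whose silencing cuts survival of bone tumour cells only with doxorubicin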 (primary screen). System: mouse osteosarcoma cells, early-passage culture from an engineered mouse model of fibroblastic bone tumour. Reagent: siRNA pool against mouse genes, 40 nM. Time to read-out: about 120 h (48 h before drug, then 72 h with drug). Treatment: doxorubicin 100 nM for 72 h, roughly 30-40% inhibitory dose. Measurement: 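Luminescent ATP signal taken as viability with or without 100 nM doxorubicin for 72 h; mean of two wells set against non-targeting siRNA and turned into robust z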. Reading the numbers: viability z-score with doxorubicin: higher = more viable cells under doxorubicin; viability z-score without drug: higher = more viable cells with knock-down alone. Hit rule: 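Called active if knock-down leaves viability unchanged without drug (z within -2 to 2) but lowers it with doxorubicin (z at or under -2)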.
Here is an unselected part of about 17,000 reagents tested. 788 of them (4.7%) were called active. 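Calls rest on z-score classes alone; an extra cut-off of viability at most 70% of control was not applied to them.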 Further read-outs or replicates are left out here. No sequences are given here.

Which result is listed for Gskip (GSK3B interacting protein)?
combined z-score class: no change with or without drug; viability z-score with doxorubicin: -1.8; viability z-score without drug: -0.17; activity call: inactive

Which result is listed for Oas1b (2'-5' oligoadenylate synthetase 1B)?
combined z-score class: no change with or without drug; viability z-score with doxorubicin: -0.11; viability z-score without drug: -0.67; activity call: inactive

How did the screen score Fstl4 (follistatin-like 4)?
combined z-score class: no change with or without drug; viability z-score with doxorubicin: 0.22; viability z-score without drug: 0.67; activity call: inactive

With 3110009E18Rik (RIKEN cDNA 3110009E18 gene), what was measured?
combined z-score class: no change with or without drug; viability z-score with doxorubicin: 1.69; viability z-score without drug: 1.52; activity call: inactive

For D830050J10Rik (RIKEN cDNA D830050J10 gene), what was measured?
combined z-score class: no change with or without drug; viability z-score with doxorubicin: 0.34; viability z-score without drug: 1.52; activity call: inactive

What is on record for Rap1gap (Rap1 GTPase-activating protein)?
combined z-score class: no change with or without drug; viability z-score with doxorubicin: 0.34; viability z-score without drug: 0.51; activity call: inactive

For Garnl3 (GTPase activating RANGAP domain-like 3), what was measured?
combined z-score class: no change with or without drug; viability z-score with doxorubicin: -1.35; viability z-score without drug: -1.01; activity call: inactive

With Psme1, how do the results read?
combined z-score class: no change with or without drug; viability z-score with doxorubicin: 1.12; viability z-score without drug: 0; activity call: inactive

With G3bp1 (G3BP stress granule assembly factor 1), what does the deposit list?
combined z-score class: no change with or without drug; viability z-score with doxorubicin: -0.45; viability z-score without drug: -0.17; activity call: inactive

For Nxph1 (neurexophilin 1), what was measured?
combined z-score class: no change with or without drug; viability z-score with doxorubicin: -0.79; viability z-score without drug: -0.51; activity call: inactive

For A130004G07Rik (retired record), how do the results read?
combined z-score class: no change with or without drug; viability z-score with doxorubicin: -1.12; viability z-score without drug: -0.84; activity call: inactive

Entries above whose target name starts with G or g (3):
Gskip (GSK3B interacting protein): combined z-score class = no change with or without drug; viability z-score with doxorubicin = -1.8; viability z-score without drug = -0.17; activity call = inactive
Garnl3 (GTPase activating RANGAP domain-like 3): combined z-score class = no change with or without drug; viability z-score with doxorubicin = -1.35; viability z-score without drug = -1.01; activity call = inactive
G3bp1 (G3BP stress granule assembly factor 1): combined z-score class = no change with or without drug; viability z-score with doxorubicin = -0.45; viability z-score without drug = -0.17; activity call = inactive

The results go on.
With Tmem109 (transmembrane protein 109), what does the deposit list?
combined z-score class: low cell count with doxorubicin only; viability z-score with doxorubicin: -2.81; viability z-score without drug: -1.85; activity call: active

Which result is listed for Ercc3?
combined z-score class: no change with or without drug; viability z-score with doxorubicin: -0.56; viability z-score without drug: 1.69; activity call: inactive

What did the screen give for Cpne5 (copine V)?
combined z-score class: no change with or without drug; viability z-score with doxorubicin: 0.9; viability z-score without drug: 0.51; activity call: inactive

For Fam163b (family with sequence similarity 163, member B), what was measured?
combined z-score class: no change with or without drug; viability z-score with doxorubicin: 1.24; viability z-score without drug: 0.17; activity call: inactive

What is on record for Tlm (T lymphoma oncogene)?
combined z-score class: no change with or without drug; viability z-score with doxorubicin: 1.12; viability z-score without drug: -0.51; activity call: inactive

For Rcsd1 (RCSD domain containing 1), what was measured?
combined z-score class: no change with or without drug; viability z-score with doxorubicin: -0.22; viability z-score without drug: 1.85; activity call: inactive

What is on record for Yes1 (YES proto-oncogene 1, Src family tyrosine kinase)?
combined z-score class: no change with or without drug; viability z-score with doxorubicin: 0.45; viability z-score without drug: 0.84; activity call: inactive

What did the screen give for Hars1 (histidyl-tRNA synthetase 1)?
combined z-score class: no change with or without drug; viability z-score with doxorubicin: -0.45; viability z-score without drug: 0.17; activity call: inactive

What did the screen give for Ndor1 (NADPH dependent diflavin oxidoreductase 1)?
combined z-score class: low cell count without drug only; viability z-score with doxorubicin: -0.45; viability z-score without drug: -2.36; activity call: inactive

What is on record for Smn1 (survival motor neuron 1)?
combined z-score class: high cell count without drug only; viability z-score with doxorubicin: -0.45; viability z-score without drug: 2.02; activity call: inactive

Which result is listed for Elk1 (ETS transcription factor ELK1)?
combined z-score class: no change with or without drug; viability z-score with doxorubicin: 0; viability z-score without drug: 1.52; activity call: inactive

With Stab1 (stabilin 1), what does the deposit list?
combined z-score class: no change with or without drug; viability z-score with doxorubicin: 0; viability z-score without drug: 0.51; activity call: inactive

What is on record for Or4c3d (olfactory receptor family 4 subfamily C member 3D)?
combined z-score class: no change with or without drug; viability z-score with doxorubicin: 0.67; viability z-score without drug: -0.67; activity call: inactive

What is on record for Sccpdh (saccharopine dehydrogenase (putative))?
combined z-score class: no change with or without drug; viability z-score with doxorubicin: 0.22; viability z-score without drug: 0.34; activity call: inactive

What did the screen give for Obox3 (oocyte specific homeobox 3)?
combined z-score class: no change with or without drug; viability z-score with doxorubicin: -0.22; viability z-score without drug: 0.51; activity call: inactive

With Slc24a4, what was measured?
combined z-score class: no change with or without drug; viability z-score with doxorubicin: -1.57; viability z-score without drug: 0.17; activity call: inactive

What did the screen give for Grik1 (glutamate receptor, ionotropic, kainate 1)?
combined z-score class: no change with or without drug; viability z-score with doxorubicin: 0; viability z-score without drug: -0.84; activity call: inactive
